This is an account of results in article PMC8143456 (Microorganisms, 2021).

Broadly, the CC50 is the concentration that lowers cell viability or growth by half.

The series can be described thus: MTS cytotoxicity assay in Vero cells. Conditions: African green monkey. Background: Tetrazolium assays rely on reduction of a dye to a coloured formazan, in cell work by metabolically active cells.

Regarding `CCC(CC)COC(=O)[C@H](C)N[P@](=O)(OC[C@H]1O[C@@](C#N)(c2ccc3c(N)ncnn23)[C@H](O)[C@@H]1O)Oc1ccccc1` [Remdesivir, reference compound], the cytotoxic concentration (CC50) at 4 days was > 100 µM.
